The data set concerns the target T1, GLK2 (Arabidopsis thaliana) (UniProt Q9FFH0).
T1 sequence (looked up, limits assumed): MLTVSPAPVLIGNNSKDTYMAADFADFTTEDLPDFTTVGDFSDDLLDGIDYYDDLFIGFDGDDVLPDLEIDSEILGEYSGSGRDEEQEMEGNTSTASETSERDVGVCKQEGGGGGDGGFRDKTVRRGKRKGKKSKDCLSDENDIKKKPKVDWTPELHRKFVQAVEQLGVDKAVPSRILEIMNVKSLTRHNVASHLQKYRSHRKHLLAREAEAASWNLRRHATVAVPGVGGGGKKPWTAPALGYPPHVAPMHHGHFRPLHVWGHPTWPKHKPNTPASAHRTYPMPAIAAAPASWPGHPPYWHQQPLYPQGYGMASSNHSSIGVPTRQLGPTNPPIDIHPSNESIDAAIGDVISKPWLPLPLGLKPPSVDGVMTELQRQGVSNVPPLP
The experiment in a line: EMSA. A general note: In EMSA bound probe runs differently from free probe, usually more slowly.

For at least one entry, the source does not settle the construct or the ends of the probe. At least one verdict rests on a figure or table, not on a statement of the authors. Where a protein sequence is shown, tags need not be part of it.

Consider “AGTAGTGGCACACAAAGTCACAACTAGAATCGTCGAGAGAAGAGCTTGGATCTTAC (double strand) [UF3GT-probeA (pUF3GT-A-EMSA)]”, for which the binding result is “binds”.
As to “ATACCAACACTGATTCTGATTCTGATTCTTCATAGAAGAAGAGAGCCAC (double strand) [DFR-probeD (pDFR-D-EMSA)]”, the binding result is “binds”.
Take “ATTCTTCATCATTCAAGATTGGATTTCCAGAAACATAAGCCATGGAAGCTTCCAAGAATCTTTGTTCATCGGAAC (double strand) [LDOX-probeB (pLDOX-B-EMSA)]”: the binding result is on record as “binds”.
In the case of “CACACACCATTCATCAGGACACTCACCAATCTGATCCGTTAAAGGTTTATGTATTT (double strand) [UF3GT-probeB (pUF3GT-B-EMSA)]”, the binding result is “binds”.
The result for “GCCCATATAGTAGTAATCTTTTTGACCAATCAGTCAACCCAACCATCCTCTCCCGT (double strand) [LDOX-probeC (pLDOX-C-EMSA)]” reads “binds”.
With “TCCAGCGTAAGCAAGAACGAGATTGGCACCACCTTCGCCTCTGTAAATCCAATCTGATGCATCTTTCTCCTCCA (double strand) [DFR-probeF (pDFR-F-EMSA)]”, the binding result was “binds”.

These data come from paper doi:10.1101/2023.03.10.532066.
